# Patent US20200108066A1, “METHODS FOR MODULATING REGULATORY T CELLS AND IMMUNE RESPONSES USING CDK4/6 INHIBITORS” (Dana-Farber Cancer Institute, Inc., priority 2017, published 2020)
# Entries after “also recorded” stand apart in the source; their conditions may differ. For at least one compound, name, drawing or mass did not settle the structure.
# Experiments:
# Type in all cases: in vivo, mouse
# [1] = system: MMTV-rtTA/tetO-HER2 tumors; assay: MMTV-rtTA/tetO-HER2 tumors implanted into athymic nude mice; details: athymic Foxn1nu mice
# [2] = system: MMTV-rtTA/tetO-HER2 tumors; assay: Immunostaining (Ki-67, STAT1) and SA-beta-galactosidase staining of MMTV-rtTA/tetO-HER2 tumors
# [3] = system: MMTV-rtTA/tetO-HER2 tumors; assay: Combined abemaciclib and anti-PD-L1 therapy in MMTV-rtTA/tetO-HER2 tumor bearing mice; details: day 21 to day 35
# Procedure: After 3 days, the dose was dropped to 75 mg/kg daily and treatment with an anti-PD-L1 antibody (200 μg by intraperitoneal injection every 72 hours; BioXcell, clone 10F.9G2) or an isotype control antibody (200 μg by intraperitoneal injection every 72 hours) was commenced. Mice were euthanized using CO2 inhalation, and all mouse experiments were performed in accordance with protocols approved by the Institutional Animal Care and Use Committees of Dana-Farber Cancer Institute, Harvard Medical School, and Boston Children's Hospital.
structure (smiles),measurement,setting,value
CCN1CCN(Cc2ccc(Nc3ncc(F)c(-c4cc(F)c5nc(C)n(C(C)C)c5c4)n3)nc2)CC1 [abemaciclib],cellular proliferation (Ki-67) in tumors in nude mice,[1],suppressed to a similar extent as seen in immune competent mice
same,tumor regression in nude mice,[1],In no case did tumors regress
same,tumor growth in nude mice,[1]; three independent experiments,"tumor growth delay, but not regression; also recorded: continued to grow, albeit at a significantly slower rate than vehicle-treated tumors"
same,tumor cell proliferation (Ki-67) in the treated tumor,[2]; 12 days treatment vs vehicle,significant reduction
same,STAT1 protein within tumor cells (immunofluorescent staining),[2]; treated cohort vs vehicle,significant increase
same,beta galactosidase in vivo,[2]; tumors treated 12 days,increased
same,tumor volume with more prolonged therapy,[3],stabilized and by day 21 several had begun to increase in volume again
